{"sequences": {"note": "Sequences of proteins named here, by UniProt entry; tags and fusion partners are left off. A change or cut given only in a name is not applied to a line headed by its entry.", "UniProt Q9BY12": "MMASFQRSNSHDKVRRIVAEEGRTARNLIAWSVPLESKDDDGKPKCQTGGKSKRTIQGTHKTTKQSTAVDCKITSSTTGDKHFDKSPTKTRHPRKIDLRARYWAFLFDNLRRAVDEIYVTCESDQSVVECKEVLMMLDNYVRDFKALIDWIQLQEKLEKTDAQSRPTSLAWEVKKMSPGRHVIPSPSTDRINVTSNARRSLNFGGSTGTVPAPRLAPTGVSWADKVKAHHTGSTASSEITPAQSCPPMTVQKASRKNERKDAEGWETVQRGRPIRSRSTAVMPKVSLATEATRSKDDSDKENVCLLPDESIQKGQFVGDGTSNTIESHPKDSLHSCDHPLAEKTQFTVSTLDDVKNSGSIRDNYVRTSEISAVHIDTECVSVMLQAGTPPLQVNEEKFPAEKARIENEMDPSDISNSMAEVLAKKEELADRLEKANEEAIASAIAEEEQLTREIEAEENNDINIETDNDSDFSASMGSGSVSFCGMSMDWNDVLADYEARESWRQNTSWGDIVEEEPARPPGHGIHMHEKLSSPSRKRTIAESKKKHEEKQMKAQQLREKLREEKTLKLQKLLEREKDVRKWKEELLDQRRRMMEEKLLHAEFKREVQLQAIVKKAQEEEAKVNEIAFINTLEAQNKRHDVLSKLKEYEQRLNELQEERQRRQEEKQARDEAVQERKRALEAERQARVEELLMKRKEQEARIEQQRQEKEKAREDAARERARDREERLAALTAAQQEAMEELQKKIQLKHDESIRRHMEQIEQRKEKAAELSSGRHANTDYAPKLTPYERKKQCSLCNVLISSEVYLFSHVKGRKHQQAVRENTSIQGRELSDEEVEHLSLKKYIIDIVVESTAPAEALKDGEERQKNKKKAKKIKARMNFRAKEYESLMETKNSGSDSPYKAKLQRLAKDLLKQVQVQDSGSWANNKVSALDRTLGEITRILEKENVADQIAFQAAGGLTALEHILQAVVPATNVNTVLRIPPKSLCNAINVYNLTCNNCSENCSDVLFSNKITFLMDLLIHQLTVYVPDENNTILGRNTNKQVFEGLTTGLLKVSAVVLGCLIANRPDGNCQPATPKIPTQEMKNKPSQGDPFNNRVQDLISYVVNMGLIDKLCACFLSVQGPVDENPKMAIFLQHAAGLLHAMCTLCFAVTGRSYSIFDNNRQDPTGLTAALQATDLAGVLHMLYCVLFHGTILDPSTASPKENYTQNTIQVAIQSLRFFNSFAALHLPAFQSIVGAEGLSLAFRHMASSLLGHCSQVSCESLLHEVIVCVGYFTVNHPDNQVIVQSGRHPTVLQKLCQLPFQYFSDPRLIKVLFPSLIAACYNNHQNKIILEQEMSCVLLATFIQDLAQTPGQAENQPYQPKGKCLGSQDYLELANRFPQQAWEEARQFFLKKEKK"}, "source": "the supplement of paper PMC11732987", "about": "“Enantioselective OTUD7B fragment discovery through chemoproteomics screening and high-throughput optimisation” (Communications Chemistry, 2025)", "note": "This is one part of the list. The data scatter; read single values as rough.", "data": [{"target": "T1, SCAPER C245 (UniProt Q9BY12)", "T1 sequence (whole entry)": "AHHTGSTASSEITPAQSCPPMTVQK", "assay": "log2 mean competition ratio of IA-DTB cysteine labelling (DMSO/compound) (log2 ratio); higher = stronger cysteine engagement by compound", "conditions": "50 µM; treatment time: 4 h; cell line lysate: HEK293T", "description": "(§1)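 IA-DTB competitive cysteine chemoproteomics in HEK293T RIPA lysate. Lysates were treated with compound 29 or 30 at 50 or 200 µM for 4 h, then IA-DTB (500 µM, 1 h), trypsin-digested, NeutrAvidin-enriched and analysed by diaPASEF. Competition ratio = intensity DMSO / intensity compound (n=4 treated, n=64 DMSO); binding: mean log2 CR ≥ 1 and p ≤ 0.05 plus QC filters. Target is the cysteine site.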", "values": [{"smiles": "O=C(CCl)N[C@H]1CCCc2ccccc21", "log2 mean competition ratio": 0.00451}, {"smiles": "O=C(CCl)N[C@@H]1CCCc2ccccc21", "log2 mean competition ratio": -0.0761}]}, {"target": "T1, SCAPER C245", "assay": "log2 mean competition ratio of IA-DTB cysteine labelling (DMSO/compound) (log2 ratio); higher = stronger cysteine engagement by compound", "conditions": "200 µM; treatment time: 4 h; cell line lysate: HEK293T", "description": "as §1", "values": [{"smiles": "O=C(CCl)N[C@H]1CCCc2ccccc21", "log2 mean competition ratio": -0.0792}, {"smiles": "O=C(CCl)N[C@@H]1CCCc2ccccc21", "log2 mean competition ratio": 0.119}]}]}
